Measurements reported in publication PMC7129064.

B1: CEP128 (protein, UniProt Q6ZU80 1-1094)
chain: MAESSSESDHFRCRDRLSPWAARSTHRGTRSLPTVEVTEKVNTITSTLQDTSRNLRQVDQMLGRYREYSNGQAGAIEHLKESLEQSIDQLRSQRLLRNSGGRSISVTSLSASDLDGGTGSELHHFPPTSPLKDYGDPQGIKRMRSRTGVRFVQETDDMTQLHGFHQSLRDLSSEQIRLGDDFNRELSRRSRSDAETKRALEELTEKLNEAQKQEVVSDRVERRLQELEREMRTERELVERRQDQLGLMSLQLQEALKKQEAKADEHEGAIKNKLRQTETEKNQLEQELELSRRLLNQSEGSRETLLHQVEELRTQLTKAEGDRKGLQHQVSQISKQQSNYQDEQGEDWRFRRGVEREKQDLEKQMSDLRVQLNFSAMASELEEVKRCMERKDKEKAHLASQVENLTRELENGEKQQLQMLDRLKEIQNHFDTCEAERKHADLQISELTRHAEDATKQAERYLSELQQSEALKEEAEKRREDLKLKAQESIRQWKLKHKKLERALEKQSETVDELTGKNNQILKEKDELKTQLYAALQQIENLRKELNDVLTKRALQEEELHSKEEKLRDIKSHQADLELEVKNSLDTIHRLESELKKQSKIQSQMKVEKAHLEEEIAELKKSQAQDKAKLLEMQESIKDLSAIRADLANKLAEEERAKKAVLKDLSDLTAQAKSRDEETATIITQLKLERDVHQRELKDLTSSLQSVKTKHEQNIQELMKHFKKEKSEAENHIRTLKAESLEEKNMAKIHRGQLEKLKSQCDRLTEELTQNENENKKLKLKYQCLKDQLEEREKHISIEEEHLRRMEEARLQLKDQLLCLETEQESILGVIGKEIDAACKTFSKDSVEKLKVFSSGPDIHYDPHRWLAESKTKLQWLCEELKERENREKNLRHQLMLCRQQLRNLTENKESELQCLFQQIERQEQLLDEIHREKRDLLEETQRKDEEMGSLQDRVIALETSTQVALDHLESVPEKLSLLEDFKDFRDSCSSSERTDGRYSKYRVRRNSLQHHQDDTKYRTKSFKGDRTFLEGSHTRGLDHSSSWQDHSRFLSSPRFSYVNSFTKRTVAPDSASNKEDATMNGTSSQPKKEEYGS
B2: CEP85 (protein, UniProt Q6P2H3 1-762)
chain: MAMQEKYPTEGISHVTSPSSDVIQKGSSLGTEWQTPVISEPFRSRFSRCSSVADSGDTAIGTSCSDIAEDFCSSSGSPPFQPIKSHVTIPTAHVMPSTLGTSPAKPNSTPVGPSSSKLPLSGLAESVGMTRNGDLGAMKHSPGLSRDLMYFSGATGENGIEQSWFPAVGHERQEEARKFDIPSMESTLNQSAMMETLYSDPHHRVRFHNPRTSTSKELYRVLPEAKKAPGSGAVFERNGPHSNSSGVLPLGLQPAPGLSKPLPSQVWQPSPDTWHPREQSCELSTCRQQLELIRLQMEQMQLQNGAICHHPAAFGPSLPILEPAQWISILNSNEHLLKEKELLIDKQRKHISQLEQKVRESELQVHSALLGRPAPFGDVCLLRLQELQRENTFLRAQFAQKTEALSREKIDLEKKLSASEVEVQLIRESLKVALQKHSEEVKKQEERVKGRDKHINNLKKKCQKESEQNREKQQRIETLERYLADLPTLEDHQKQSQQLKDSELKSTELQEKVTELESLLEETQAICREKEIQLESLRQREAEFSSAGHSLQDKQSVEETSGEGPEVEMESWQKRYDSLQKIVEKQQQKMDQLRSQVQSLEQEVAQEEGTSQALREEAQRRDSALQQLRTAVKELSVQNQDLIEKNLTLQEHLRQAQPGSPPSPDTAQLALELHQELASCLQDLQAVCSIVTQRAQGHDPNLSLLLGIHSAQHPETQLDLQKPDVIKRKLEEVQQLRRDIEDLRTTMSDRYAQDMGENCVTQ
B3: CEP131 (protein, UniProt Q9UPN4 1-1083)
chain: MKGTRAIGSVPERSPAGVDLSLTGLPPPVSRRPGSAATTKPIVRSVSVVTGSEQKRKVLEATGPGGSQAINNLRRSNSTTQVSQPRSGSPRPTEPTDFLMLFEGSPSGKKRPASLSTAPSEKGATWNVLDDQPRGFTLPSNARSSSALDSPAGPRRKECTVALAPNFTANNRSNKGAVGNCVTTMVHNRYTPSERAPPLKSSNQTAPSLNNIIKAATCEGSESSGFGKLPKNVSSATHSARNNTGGSTGLPRRKEVTEEEAERFIHQVNQATVTIQRWYRHQVQRRGAGAARLEHLLQAKREEQRQRSGEGTLLDLHQQKEAARRKAREEKARQARRAAIQELQQKRALRAQKASTAERGPPENPRETRVPGMRQPAQELSPTPGGTAHQALKANNTGGGLPAAGPGDRCLPTSDSSPEPQQPPEDRTQDVLAQDAAGDNLEMMAPSRGSAKSRGPLEELLHTLQLLEKEPDVLPRPRTHHRGRYAWASEVTTEDDASSLTADNLEKFGKLSAFPEPPEDGTLLSEAKLQSIMSFLDEMEKSGQDQLDSQQEGWVPEAGPGPLELGSEVSTSVMRLKLEVEEKKQAMLLLQRALAQQRDLTARRVKETEKALSRQLQRQREHYEATIQRHLAFIDQLIEDKKVLSEKCEAVVAELKQEDQRCTERVAQAQAQHELEIKKLKELMSATEKARREKWISEKTKKIKEVTVRGLEPEIQKLIARHKQEVRRLKSLHEAELLQSDERASQRCLRQAEELREQLEREKEALGQQERERARQRFQQHLEQEQWALQQQRQRLYSEVAEERERLGQQAARQRAELEELRQQLEESSSALTRALRAEFEKGREEQERRHQMELNTLKQQLELERQAWEAGRTRKEEAWLLNREQELREEIRKGRDKEIELVIHRLEADMALAKEESEKAAESRIKRLRDKYEAELSELEQSERKLQERCSELKGQLGEAEGENLRLQGLVRQKERALEDAQAVNEQLSSERSNLAQVIRQEFEDRLAASEEETRQAKAELATLQARQQLELEEVHRRVKTALARKEEAVSSLRTQHEAAVKRADHLEELLEQHRRPTPSTK
B4: OFD1 (protein, UniProt O75665 1-1012)
chain: MMAQSNMFTVADVLSQDELRKKLYQTFKDRGILDTLKTQLRNQLIHELMHPVLSGELQPRSISVEGSSLLIGASNSLVADHLQRCGYEYSLSVFFPESGLAKEKVFTMQDLLQLIKINPTSSLYKSLVSGSDKENQKGFLMHFLKELAEYHQAKESCNMETQTSSTFNRDSLAEKLQLIDDQFADAYPQRIKFESLEIKLNEYKREIEEQLRAEMCQKLKFFKDTEIAKIKMEAKKKYEKELTMFQNDFEKACQAKSEALVLREKSTLERIHKHQEIETKEIYAQRQLLLKDMDLLRGREAELKQRVEAFELNQKLQEEKHKSITEALRRQEQNIKSFEETYDRKLKNELLKYQLELKDDYIIRTNRLIEDERKNKEKAVHLQEELIAINSKKEELNQSVNRVKELELELESVKAQSLAITKQNHMLNEKVKEMSDYSLLKEEKLELLAQNKLLKQQLEESRNENLRLLNRLAQPAPELAVFQKELRKAEKAIVVEHEEFESCRQALHKQLQDEIEHSAQLKAQILGYKASVKSLTTQVADLKLQLKQTQTALENEVYCNPKQSVIDRSVNGLINGNVVPCNGEISGDFLNNPFKQENVLARMVASRITNYPTAWVEGSSPDSDLEFVANTKARVKELQQEAERLEKAFRSYHRRVIKNSAKSPLAAKSPPSLHLLEAFKNITSSSPERHIFGEDRVVSEQPQVGTLEERNDVVEALTGSAASRLRGGTSSRRLSSTPLPKAKRSLESEMYLEGLGRSHIASPSPCPDRMPLPSPTESRHSLSIPPVSSPPEQKVGLYRRQTELQDKSEFSDVDKLAFKDNEEFESSFESAGNMPRQLEMGGLSPAGDMSHVDAAAAAVPLSYQHPSVDQKQIEEQKEEEKIREQQVKERRQREERRQSNLQEVLERERRELEKLYQERKMIEESLKIKIKKELEMENELEMSNQEIKDKSAHSENPLEKYMKIIQQEQDQESADKSSKKMVQEGSLVDTLQSSDKVESLTGFSHEELDDSW
B5: CEP55 (protein, UniProt Q53EZ4 1-464)
chain: MSSRSTKDLIKSKWGSKPSNSKSETTLEKLKGEIAHLKTSVDEITSGKGKLTDKERHRLLEKIRVLEAEKEKNAYQLTEKDKEIQRLRDQLKARYSTTTLLEQLEETTREGERREQVLKALSEEKDVLKQQLSAATSRIAELESKTNTLRLSQTVAPNCFNSSINNIHEMEIQLKDALEKNQQWLVYDQQREVYVKGLLAKIFELEKKTETAAHSLPQQTKKPESEGYLQEEKQKCYNDLLASAKKDLEVERQTITQLSFELSEFRRKYEETQKEVHNLNQLLYSQRRADVQHLEDDRHKTEKIQKLREENDIARGKLEEEKKRSEELLSQVQFLYTSLLKQQEEQTRVALLEQQMQACTLDFENEKLDRQHVQHQLHVILKELRKARNQITQLESLKQLHEFAITEPLVTFQGETENREKVAASPKSPTAALNESLVECPKCNIQYPATEHRDLLVHVEYCSK

These binders were tested against V5-BirA*-SLAIN2 (assay: proximity labelling; BioID: HEK293T stably expressing V5-BirA*-SLAIN2, 50 uM biotin for 18 h, denaturing lysis (500 mM NaCl, 0.4% SDS, 2% Triton X-100), streptavidin agarose pull-down, on-bead digestion and mass spectrometry; three replicates; V5-BirA* alone as control (seven replicates)).

binding, binds:
B1
B2
B3
B4
B5

These are yes or no findings as the source states them, for the method shown. In cells and extracts the contact can be indirect. A yes stands for co-enrichment or nearness to the bait. Other partners may have been found.
